Assay results taken from the supplement of paper PMC12823440, “Inhibitors supercharge kinase turnover through native proteolytic circuits” (Nature, 2025).
Counter-ions that a name gives are not always drawn. The list shows a part of the results. Hit calls seldom repeat between salt and free forms of one compound.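 In K562 cells expressing nanoluciferase-fused kinases, luminescence was recorded at 4 h intervals between 2 and 18 h, normalized as percent of control with DMSO at 100% and a positive control at 0%. A significant (2 sigma) signal drop marks a time point as decreased. The authors' rule for a hit is not shown and takes in more than the number of time points.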

Amino acid sequences for entries named in this document (tags omitted). A change or cut given only in a name is not applied to a line headed by its entry.
UniProt Q9UM73: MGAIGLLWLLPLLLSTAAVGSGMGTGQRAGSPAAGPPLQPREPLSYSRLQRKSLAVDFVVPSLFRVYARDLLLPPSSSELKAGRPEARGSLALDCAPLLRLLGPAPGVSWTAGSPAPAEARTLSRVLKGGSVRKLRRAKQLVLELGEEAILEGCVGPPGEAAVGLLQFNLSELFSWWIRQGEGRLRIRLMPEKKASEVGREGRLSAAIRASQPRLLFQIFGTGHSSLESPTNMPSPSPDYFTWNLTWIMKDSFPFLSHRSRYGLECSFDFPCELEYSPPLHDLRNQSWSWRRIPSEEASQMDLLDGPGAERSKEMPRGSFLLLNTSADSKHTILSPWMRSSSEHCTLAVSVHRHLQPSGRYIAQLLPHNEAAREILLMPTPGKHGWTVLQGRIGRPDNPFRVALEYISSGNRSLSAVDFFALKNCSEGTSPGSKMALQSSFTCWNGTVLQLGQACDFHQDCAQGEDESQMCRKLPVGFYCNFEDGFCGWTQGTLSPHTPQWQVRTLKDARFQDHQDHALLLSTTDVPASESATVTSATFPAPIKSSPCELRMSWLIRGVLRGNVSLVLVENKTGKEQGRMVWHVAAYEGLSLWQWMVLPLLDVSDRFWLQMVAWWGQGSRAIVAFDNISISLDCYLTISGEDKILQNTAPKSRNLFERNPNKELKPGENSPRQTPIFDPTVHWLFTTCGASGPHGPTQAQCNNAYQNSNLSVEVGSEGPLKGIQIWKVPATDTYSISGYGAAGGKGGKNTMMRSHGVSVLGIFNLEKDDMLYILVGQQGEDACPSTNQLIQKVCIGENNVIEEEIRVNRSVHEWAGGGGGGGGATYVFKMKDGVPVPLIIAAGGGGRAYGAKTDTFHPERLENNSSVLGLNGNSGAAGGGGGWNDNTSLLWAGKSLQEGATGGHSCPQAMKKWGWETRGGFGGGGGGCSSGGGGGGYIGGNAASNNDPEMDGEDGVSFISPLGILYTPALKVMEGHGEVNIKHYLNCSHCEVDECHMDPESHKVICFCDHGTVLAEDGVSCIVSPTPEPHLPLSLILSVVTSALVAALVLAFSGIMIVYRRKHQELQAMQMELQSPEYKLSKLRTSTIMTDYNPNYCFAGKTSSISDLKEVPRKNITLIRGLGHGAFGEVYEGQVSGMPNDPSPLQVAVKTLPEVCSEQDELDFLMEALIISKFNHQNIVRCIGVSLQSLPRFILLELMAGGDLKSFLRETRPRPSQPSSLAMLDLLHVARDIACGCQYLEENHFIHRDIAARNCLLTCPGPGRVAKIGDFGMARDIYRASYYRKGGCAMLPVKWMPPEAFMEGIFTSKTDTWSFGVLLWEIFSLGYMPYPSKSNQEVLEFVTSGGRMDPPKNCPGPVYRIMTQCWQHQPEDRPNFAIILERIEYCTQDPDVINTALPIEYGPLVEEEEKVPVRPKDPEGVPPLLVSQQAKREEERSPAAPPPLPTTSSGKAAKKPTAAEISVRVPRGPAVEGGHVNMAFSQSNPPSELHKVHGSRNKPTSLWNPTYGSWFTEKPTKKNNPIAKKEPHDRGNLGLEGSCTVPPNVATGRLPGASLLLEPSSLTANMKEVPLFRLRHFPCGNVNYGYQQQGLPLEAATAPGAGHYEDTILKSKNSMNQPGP
UniProt P10398: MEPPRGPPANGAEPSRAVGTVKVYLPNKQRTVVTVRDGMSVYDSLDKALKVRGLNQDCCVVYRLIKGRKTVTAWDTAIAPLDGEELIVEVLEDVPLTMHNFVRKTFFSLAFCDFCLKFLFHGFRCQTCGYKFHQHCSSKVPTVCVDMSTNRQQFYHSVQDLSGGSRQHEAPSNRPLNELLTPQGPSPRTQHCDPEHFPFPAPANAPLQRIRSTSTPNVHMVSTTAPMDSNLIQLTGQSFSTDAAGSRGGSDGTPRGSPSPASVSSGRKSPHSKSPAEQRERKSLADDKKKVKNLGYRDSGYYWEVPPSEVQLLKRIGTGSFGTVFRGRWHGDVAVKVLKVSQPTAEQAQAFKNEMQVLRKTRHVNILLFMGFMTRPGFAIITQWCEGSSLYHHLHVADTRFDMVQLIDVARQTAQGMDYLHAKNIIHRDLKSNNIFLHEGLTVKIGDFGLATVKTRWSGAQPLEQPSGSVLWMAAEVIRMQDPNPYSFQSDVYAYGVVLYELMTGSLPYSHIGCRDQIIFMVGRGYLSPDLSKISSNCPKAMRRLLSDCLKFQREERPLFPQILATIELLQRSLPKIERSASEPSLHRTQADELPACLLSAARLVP
UniProt O14965: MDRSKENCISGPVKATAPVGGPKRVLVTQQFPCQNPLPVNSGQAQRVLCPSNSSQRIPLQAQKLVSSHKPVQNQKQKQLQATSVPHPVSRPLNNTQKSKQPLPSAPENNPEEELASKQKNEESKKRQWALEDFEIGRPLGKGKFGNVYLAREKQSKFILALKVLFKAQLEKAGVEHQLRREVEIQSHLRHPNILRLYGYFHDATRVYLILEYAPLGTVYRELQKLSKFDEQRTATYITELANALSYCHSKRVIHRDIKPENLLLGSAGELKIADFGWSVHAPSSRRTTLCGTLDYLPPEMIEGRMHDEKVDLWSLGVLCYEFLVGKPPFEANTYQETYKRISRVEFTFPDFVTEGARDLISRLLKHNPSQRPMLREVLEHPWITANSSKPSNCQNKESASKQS
UniProt Q96GD4, whole entry: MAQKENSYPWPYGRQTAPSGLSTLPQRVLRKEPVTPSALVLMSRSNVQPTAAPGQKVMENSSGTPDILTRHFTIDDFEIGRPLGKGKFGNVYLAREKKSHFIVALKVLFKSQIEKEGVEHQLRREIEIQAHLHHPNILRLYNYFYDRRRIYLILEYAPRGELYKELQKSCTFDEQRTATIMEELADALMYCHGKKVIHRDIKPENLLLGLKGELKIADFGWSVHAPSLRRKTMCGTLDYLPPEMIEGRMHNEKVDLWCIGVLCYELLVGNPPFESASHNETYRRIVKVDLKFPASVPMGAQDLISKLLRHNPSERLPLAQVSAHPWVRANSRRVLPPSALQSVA
UniProt Q9UQB9: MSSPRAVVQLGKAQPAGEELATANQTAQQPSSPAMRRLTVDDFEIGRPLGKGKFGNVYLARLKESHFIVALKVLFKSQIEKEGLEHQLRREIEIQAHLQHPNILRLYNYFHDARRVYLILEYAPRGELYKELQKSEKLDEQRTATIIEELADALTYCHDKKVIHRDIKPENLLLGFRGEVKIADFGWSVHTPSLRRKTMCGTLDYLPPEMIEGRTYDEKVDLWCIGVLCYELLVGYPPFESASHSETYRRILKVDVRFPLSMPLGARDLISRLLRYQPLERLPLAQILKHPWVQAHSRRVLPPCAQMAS
UniProt P51451: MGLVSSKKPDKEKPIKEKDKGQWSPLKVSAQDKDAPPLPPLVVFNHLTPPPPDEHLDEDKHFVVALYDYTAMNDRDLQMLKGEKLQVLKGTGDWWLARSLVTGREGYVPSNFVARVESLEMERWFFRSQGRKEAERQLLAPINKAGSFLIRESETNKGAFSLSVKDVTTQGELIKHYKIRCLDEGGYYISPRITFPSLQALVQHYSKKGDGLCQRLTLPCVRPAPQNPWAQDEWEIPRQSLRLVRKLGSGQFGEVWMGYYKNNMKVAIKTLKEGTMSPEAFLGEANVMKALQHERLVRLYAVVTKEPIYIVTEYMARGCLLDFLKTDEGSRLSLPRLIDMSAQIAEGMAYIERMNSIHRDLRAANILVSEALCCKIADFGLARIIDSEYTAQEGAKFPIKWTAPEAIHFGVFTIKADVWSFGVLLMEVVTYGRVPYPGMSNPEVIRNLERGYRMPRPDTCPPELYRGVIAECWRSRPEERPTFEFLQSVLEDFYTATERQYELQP
UniProt P51813: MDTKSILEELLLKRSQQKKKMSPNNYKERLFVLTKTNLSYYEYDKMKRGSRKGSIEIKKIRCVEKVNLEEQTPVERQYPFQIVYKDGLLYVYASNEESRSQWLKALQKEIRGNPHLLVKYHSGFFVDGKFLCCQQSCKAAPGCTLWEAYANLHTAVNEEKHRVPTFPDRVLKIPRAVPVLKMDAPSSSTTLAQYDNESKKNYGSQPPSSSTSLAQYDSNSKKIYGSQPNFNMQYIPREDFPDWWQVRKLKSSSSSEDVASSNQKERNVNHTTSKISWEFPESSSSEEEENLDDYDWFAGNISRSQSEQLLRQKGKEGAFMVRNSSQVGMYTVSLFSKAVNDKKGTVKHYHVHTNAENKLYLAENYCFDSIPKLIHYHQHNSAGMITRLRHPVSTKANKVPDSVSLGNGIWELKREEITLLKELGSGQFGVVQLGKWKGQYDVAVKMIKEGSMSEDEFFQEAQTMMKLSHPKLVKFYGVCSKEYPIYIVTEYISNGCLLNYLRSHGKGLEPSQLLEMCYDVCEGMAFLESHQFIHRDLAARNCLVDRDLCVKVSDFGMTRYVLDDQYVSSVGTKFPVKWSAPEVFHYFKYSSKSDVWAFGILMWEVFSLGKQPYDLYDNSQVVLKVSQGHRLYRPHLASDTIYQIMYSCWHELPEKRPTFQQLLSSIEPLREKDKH
UniProt P15056, whole entry, looked up: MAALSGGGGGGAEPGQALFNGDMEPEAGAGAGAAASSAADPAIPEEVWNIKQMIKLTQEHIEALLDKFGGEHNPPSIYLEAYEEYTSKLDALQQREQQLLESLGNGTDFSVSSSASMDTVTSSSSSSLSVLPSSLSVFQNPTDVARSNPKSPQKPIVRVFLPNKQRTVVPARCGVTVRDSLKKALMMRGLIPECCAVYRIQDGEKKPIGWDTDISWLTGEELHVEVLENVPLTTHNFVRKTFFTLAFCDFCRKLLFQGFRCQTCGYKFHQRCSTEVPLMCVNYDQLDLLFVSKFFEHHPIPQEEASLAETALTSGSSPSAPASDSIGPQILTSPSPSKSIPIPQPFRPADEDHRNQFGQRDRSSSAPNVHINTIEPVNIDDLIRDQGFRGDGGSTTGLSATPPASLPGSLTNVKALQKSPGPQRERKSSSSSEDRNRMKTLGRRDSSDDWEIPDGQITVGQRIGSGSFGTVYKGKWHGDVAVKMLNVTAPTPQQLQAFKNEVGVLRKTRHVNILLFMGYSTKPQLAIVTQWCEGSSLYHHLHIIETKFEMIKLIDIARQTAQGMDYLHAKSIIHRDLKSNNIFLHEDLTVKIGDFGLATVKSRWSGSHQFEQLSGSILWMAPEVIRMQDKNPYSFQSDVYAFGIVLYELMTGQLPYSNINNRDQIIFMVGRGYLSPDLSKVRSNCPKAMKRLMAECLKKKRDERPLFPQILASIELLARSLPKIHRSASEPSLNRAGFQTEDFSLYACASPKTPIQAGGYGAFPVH
UniProt Q06187: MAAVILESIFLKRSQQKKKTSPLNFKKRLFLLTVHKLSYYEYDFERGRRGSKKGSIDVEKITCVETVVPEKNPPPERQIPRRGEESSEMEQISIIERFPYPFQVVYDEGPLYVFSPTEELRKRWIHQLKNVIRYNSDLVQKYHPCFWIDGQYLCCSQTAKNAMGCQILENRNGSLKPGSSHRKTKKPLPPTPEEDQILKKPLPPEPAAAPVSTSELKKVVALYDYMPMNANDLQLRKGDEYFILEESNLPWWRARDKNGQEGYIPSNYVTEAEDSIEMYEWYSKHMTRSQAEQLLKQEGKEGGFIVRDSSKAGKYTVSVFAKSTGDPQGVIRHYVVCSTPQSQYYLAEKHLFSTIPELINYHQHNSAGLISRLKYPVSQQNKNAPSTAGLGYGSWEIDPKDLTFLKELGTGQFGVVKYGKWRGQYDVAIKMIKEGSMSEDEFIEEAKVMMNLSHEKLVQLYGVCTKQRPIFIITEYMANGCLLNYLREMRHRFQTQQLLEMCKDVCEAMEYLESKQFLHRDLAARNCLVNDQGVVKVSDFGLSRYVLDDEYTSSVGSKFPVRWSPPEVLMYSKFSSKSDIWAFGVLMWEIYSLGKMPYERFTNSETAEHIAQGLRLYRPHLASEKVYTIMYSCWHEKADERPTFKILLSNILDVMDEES

Columns and labels:
Assay in all cases: number of time points (of 5) at which kinase-Nluc abundance scored as decreased, DMSO-normalised (count); higher = more persistent destabilization
Conditions in all cases: K562; 2-18 h
ALK = ALK (UniProt Q9UM73)
ARAF = ARAF (UniProt P10398)
AURKA = AURKA (UniProt O14965)
AURKB = AURKB (UniProt Q96GD4)
AURKC = AURKC (UniProt Q9UQB9)
BLK = BLK (UniProt P51451)
BMX = BMX (UniProt P51813)
BRAF = BRAF (UniProt P15056)
BRAF_V600E = test system: BRAF_V600E
BTK = BTK (UniProt Q06187)

Structure (SMILES)	number of time points (ALK)	number of time points (ARAF)	number of time points (AURKA)	number of time points (AURKB)	number of time points (AURKC)	number of time points (BLK)	number of time points (BMX)	number of time points (BRAF)	number of time points (BRAF_V600E)	number of time points (BTK)
O=C1NC(=O)/C(=C/c2ccc(-c3ccc(F)cc3O)o2)S1 (10 µM)	0	0	0	0	0	0	0	0	0	0
c1ccc(-c2oc3ncnc(NC[C@@H]4CCCO4)c3c2-c2ccccc2)cc1 (2.5 µM)	0	0	0	0	0	0	0	0	0	0
COc1c(C)c(C(=O)c2ccc(N)c(C(=O)O)c2)n2ccccc12 (10 µM)	0	0	0	0	0	0	0	0	0	0
CC(=O)NCCc1c[nH]c2ccc(O)cc12 [N-Acetyl-5-hydroxytryptamine] (10 µM)	0	0	0	0	0	0	0	0	0	0
CCCC(=O)Nc1nc2c(ncn2[C@@H]2O[C@@H]3COP(=O)(O)O[C@H]3[C@H]2OC(=O)CCC)c(=O)[nH]1 [Dibutyryl-cGMP (sodium)] (10 µM)	0	0	0	0	0	0	0	0	0	0
COc1cc(-c2cc(-c3cc(OC)c(OC)c(OC)c3)cc(C(F)P(=O)(OCOC(=O)C(C)(C)C)OCOC(=O)C(C)(C)C)c2)cc(OC)c1OC (stereo not given) [Stafia-1-dipivaloyloxymethyl ester] (2.5 µM)	0	0	0	0	0	0	0	0	1	0
O=C(Nc1ccc(Cl)c(Cl)c1)Nc1ccc2nnsc2c1 (10 µM)	0	0	0	0	0	0	0	3	0	0
O=C(O)c1ccc(-c2c[nH]c3ncc(-c4ccccc4)cc23)cc1C1CCCC1 (2.5 µM)	0	0	0	0	0	0	0	0	0	0
CN1CC[C@H](c2c(O)cc(O)c3c(=O)cc(-c4ccc(C(F)(F)F)cc4Cl)oc23)[C@H]1CO [(2S,3R)-Voruciclib (hydrochloride)] (2.5 µM)	0	0	3	0	0	0	0	0	2	0
CN(C)c1nc2c(Br)c(Br)c(Br)c(Br)c2n1CC(=O)O (10 µM)	0	0	0	0	0	0	0	0	0	0
O[C@H]1CC[C@H](Nc2ncc3nc(Nc4c(F)cc(F)cc4F)n([C@H]4CCOC4)c3n2)CC1 [Tanzisertib] (10 µM)	0	0	0	0	0	0	0	0	0	0
C=CC(=O)N1CCC[C@@H](n2nc(C(=O)Nc3ccc(CC(=O)N(C)C)c(C)c3C)c3c(N)ncnc32)C1 (10 µM)	0	0	0	0	0	0	0	0	0	0
O=S(=O)(c1cccc2cnccc12)N1CCNCC1 (10 µM)	0	0	0	0	0	0	0	0	0	0
O=C(O)CCc1ccc(NCc2cccc(Oc3ccccc3)c2)cc1 (10 µM)	0	0	0	0	0	0	0	0	0	0
COc1cc(N2CCC(N3CCN(C)CC3)CC2)ccc1Nc1nc2c(c(Nc3ccccc3S(=O)(=O)NC(C)C)n1)CCN2 [Conteltinib] (10 µM)	0	0	0	0	0	0	0	0	0	0
Nc1n[nH]c2cc(-c3ccc(=O)n(Cc4cccc(Cl)c4)c3)ccc12 (10 µM)	2	0	0	0	0	0	0	0	0	0
Cn1cc(-c2ccc3nnc(C(F)(F)c4ccc5ncccc5c4)n3n2)cn1 (10 µM)	0	0	0	0	0	0	0	0	0	0
O=C(O)c1cc(O)c2c(c1)[C@@H]([C@H]1c3cc(C(=O)O)cc(O)c3C(=O)c3c(O[C@@H]4O[C@H](CO)[C@@H](O)[C@H](O)[C@H]4O)cccc31)c1cccc(O[C@@H]3O[C@H](CO)[C@@H](O)[C@H](O)[C@H]3O)c1C2=O [Sennoside B] (2.5 µM)	0	0	0	0	0	0	0	0	0	0
COc1c(O)cc2oc3cc(O)c(CC=C(C)C)c(O)c3c(=O)c2c1CCC(C)(C)O [Garcinone D] (2.5 µM)	0	0	0	0	0	0	0	0	0	0
O=C(CCCCCn1cc(Nc2ncc(Cl)c(Nc3ccc(Cl)cc3)n2)cn1)NO (2.5 µM)	0	0	0	0	0	0	0	0	0	0
CN(C)Cc1cccc(N=C(c2ccccc2)c2c(O)[nH]c3cc(C(N)=O)ccc23)c1 (10 µM)	0	0	0	0	0	0	0	0	0	0
NS(=O)(=O)c1ccc(N2N=C(c3ccccc3)CC2c2ccccc2)cc1 (stereo not given) (10 µM)	0	0	0	0	0	0	0	0	0	0
Cc1cc(Nc2nc(N[C@@H](C)c3ncc(F)cn3)ncc2Cl)[nH]n1 (10 µM)	0	0	0	0	0	0	0	0	0	0

Record cards, as listed above. Order of values: number of time points (ALK)	number of time points (ARAF)	number of time points (AURKA)	number of time points (AURKB)	number of time points (AURKC)	number of time points (BLK)	number of time points (BMX)	number of time points (BRAF)	number of time points (BRAF_V600E)	number of time points (BTK)
NS(=O)(=O)c1ccc(N2N=C(c3ccccc3)CC2c2ccccc2)cc1 (stereo not given) (10 µM) reads 0	0	0	0	0	0	0	0	0	0
Nc1n[nH]c2cc(-c3ccc(=O)n(Cc4cccc(Cl)c4)c3)ccc12 (10 µM) reads 2	0	0	0	0	0	0	0	0	0
